Laboratory results published in article PMC10798152.
These are yes or no findings as the source states them, for the method shown. Binding seen in cells or lysates may run through a third protein. Some binding calls cover weakened binding; strength is not graded here. Values belong to the molecule of their own block, whether it stands above or below them.

Sequences of proteins named here, by UniProt entry; tags and fusion partners are left off.
UniProt Q13547: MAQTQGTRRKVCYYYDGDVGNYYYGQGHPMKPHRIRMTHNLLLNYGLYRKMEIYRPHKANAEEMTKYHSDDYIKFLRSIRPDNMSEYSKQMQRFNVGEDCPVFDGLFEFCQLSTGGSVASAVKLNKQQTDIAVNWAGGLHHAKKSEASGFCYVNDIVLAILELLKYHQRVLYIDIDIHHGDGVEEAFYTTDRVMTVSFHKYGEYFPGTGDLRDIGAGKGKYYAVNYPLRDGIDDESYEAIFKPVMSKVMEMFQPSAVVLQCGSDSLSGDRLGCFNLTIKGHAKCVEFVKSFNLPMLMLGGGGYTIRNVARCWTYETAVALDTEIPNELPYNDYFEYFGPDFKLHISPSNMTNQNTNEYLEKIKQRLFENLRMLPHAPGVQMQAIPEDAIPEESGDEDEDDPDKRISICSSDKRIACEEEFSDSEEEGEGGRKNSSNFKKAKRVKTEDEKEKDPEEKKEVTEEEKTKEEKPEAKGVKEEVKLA

Assays:
[1] = target: T1, gasdermin D (GSDMD) protein, endogenous in NHEK cells (human (endogenous in NHEK)) (UniProt P57764); assay: co-IP; lysate of NHEK cells transfected with blank vector or KCTD6 expression vector, GSDMD antibody (by the legend of Fig. 6E); immunoblot for HDAC1
T1 sequence: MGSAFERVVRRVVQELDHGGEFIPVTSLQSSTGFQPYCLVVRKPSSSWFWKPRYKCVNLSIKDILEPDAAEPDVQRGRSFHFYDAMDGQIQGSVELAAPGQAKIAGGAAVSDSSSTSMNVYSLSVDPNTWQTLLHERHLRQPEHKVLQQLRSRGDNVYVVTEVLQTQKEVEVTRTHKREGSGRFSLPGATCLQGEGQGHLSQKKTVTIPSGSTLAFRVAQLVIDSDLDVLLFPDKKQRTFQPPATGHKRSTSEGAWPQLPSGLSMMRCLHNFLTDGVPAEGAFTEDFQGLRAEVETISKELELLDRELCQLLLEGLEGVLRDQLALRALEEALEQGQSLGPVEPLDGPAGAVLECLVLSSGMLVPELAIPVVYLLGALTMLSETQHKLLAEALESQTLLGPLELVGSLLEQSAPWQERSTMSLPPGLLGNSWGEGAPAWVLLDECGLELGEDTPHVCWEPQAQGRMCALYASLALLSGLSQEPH

[2] = target: Histone Deacetylase1 (HDAC1) protein, endogenous in NHEK cells (human (endogenous in NHEK)) (UniProt Q13547); assay: co-IP; lysate (about 160 ug protein) of NHEK cells transfected with blank vector or GSDMD expression vector, 2 ug HDAC1 antibody; immunoblot for KCTD6
[3] = target: Histone Deacetylase1 (HDAC1) protein, endogenous in NHEK cells (human (endogenous in NHEK)) (UniProt Q13547); assay: co-IP; NHEK cell lysate (about 160 ug protein) with 2 ug GSDMD or HDAC1 antibody, Co-IP Kit (Abison); immunoblot for KCTD6
[4] = target: Histone Deacetylase1 (HDAC1) protein, endogenous in NHEK cells (human (endogenous in NHEK)) (UniProt Q13547); assay: co-IP; lysate of NHEK cells transfected with blank vector or KCTD6 expression vector, GSDMD antibody (by the legend of Fig. 6E); immunoblot for HDAC1

B1: GSDMD overexpressed from the GSDMD expression vector (pcDNA3.1-GSDMD) (protein, UniProt P57764 1-484)
chain: T1 sequence
binding [2]: binds

B3: KCTD6 overexpressed from the KCTD6 expression vector (protein, UniProt Q8NC69 1-237)
chain: MDNGDWGYMMTDPVTLNVGGHLYTTSLTTLTRYPDSMLGAMFGGDFPTARDPQGNYFIDRDGPLFRYVLNFLRTSELTLPLDFKEFDLLRKEADFYQIEPLIQCLNDPKPLYPMDTFEEVVELSSTRKLSKYSNPVAVIITQLTITTKVHSLLEGISNYFTKWNKHMMDTRDCQVSFTFGPCDYHQEVSLRVHLMEYITKQGFTIRNTRVHHMSERANENTVEHNWTFCRLARKTDD
binding [4]: binds

Results, then the molecule that gave them:

binding [1]: binds
Molecule: Histone Deacetylase1 (HDAC1) protein, endogenous in NHEK cells (from UniProt Q13547 1-482)

binding [3]: binds | binding [2]: binds
B2: Potassium Channel Tetramerization Domain Containing 6 (KCTD6) protein, endogenous in NHEK cells (protein, UniProt Q8NC69 1-237)
chain: B3 chain
